PubChem BioAssay AID504774, Drosophila RNAi Screening Center – 2011
The screen tested about 23,000 reagents; shown is a random part of those that have a named target and a result. 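Values are quantile-normalised luminescence on an arbitrary scale; higher means more cells surviving MMS.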 A plus sign joins genes that one reagent is predicted to hit. Not all columns of the deposit are shown.

Assay: 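Fly genes whose loss alters survival after alkylation damage to DNA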 (primary screen)
Cell system: Drosophila Kc167 cells
Knock-down reagent: long dsRNA against Drosophila genes, about 0.25 µg dsRNA per well
Timing: about 6 days: 3 days knock-down, then 3 days with or without MMS
Challenge: methyl methanesulphonate 0.004% (w/v) for 3 days after knock-down
Read-out: 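Viability in wells given MMS, read as ATP luminescence, normalised by quantiles plate by plate and averaged across replicates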
Scale: mean viability with MMS and viability with MMS: higher = more surviving cells after MMS

| predicted target | DRSC id | mean viability with MMS | viability with MMS, replicate 1 |
| --- | --- | --- | --- |
| CG13634 | DRSC14635 | 3.55e6 | 3.95e6 |
| CG31343 | DRSC15887 | 3.50e6 | 3.95e6 |
| CG15128 | DRSC06550 | 3.49e6 | 3.87e6 |
| Myo10A (Myosin 10A) | DRSC19834 | 3.63e6 | 4.11e6 |
| Myo10A (Myosin 10A) | DRSC19837 | 3.62e6 | 4.22e6 |
| Gapvd1 (GTPase activating protein and VPS9 domains 1) | DRSC19752 | 3.40e6 | 3.83e6 |
| CG3505 | DRSC15489 | 3.75e6 | 4.34e6 |
| Nop56 | DRSC14699 | 3.29e6 | 3.88e6 |
| Cad99C (Cadherin 99C) | DRSC15050 | 3.60e6 | 4.07e6 |
| Cad99C (Cadherin 99C) | DRSC16317 | 3.69e6 | 4.15e6 |
| nSyb (neuronal Synaptobrevin) | DRSC08727 | 3.55e6 | 4.01e6 |
| Obp57c + Obp57b | DRSC21914 | 3.49e6 | 4.01e6 |
| saturn | DRSC09303 | 3.59e6 | 4.13e6 |
| CG4363 | DRSC04465 | 3.56e6 | 4.09e6 |
| Pus7 (Pseudouridine synthase 7) | DRSC10703 | 3.76e6 | 4.26e6 |
| Grl40a (Gustatory receptor-like 40a) | DRSC03677 | 3.43e6 | 3.89e6 |
| CG13616 | DRSC14619 | 3.54e6 | 4.03e6 |
| Act42A (Actin 42A) | DRSC04835 | 3.46e6 | 3.87e6 |
| CG17732 | DRSC10283 | 3.57e6 | 3.97e6 |
| Trc8 (TRC8 ring finger protein) | DRSC15437 | 3.67e6 | 4.17e6 |
| sle + CG12592 | DRSC21387 | 3.52e6 | 4.17e6 |
| icln | DRSC07630 | 3.48e6 | 3.97e6 |
| Cpr65Av (Cuticular protein 65Av) | DRSC09727 | 3.59e6 | 4.09e6 |
| olf413 | DRSC11543 | 4.02e6 | 4.83e6 |
| olf413 | DRSC11679 | 3.57e6 | 4.75e6 |
| olf413 | DRSC11721 | 3.69e6 | 4.14e6 |
| olf413 | DRSC11833 | 3.62e6 | 3.71e6 |
| Mcm2 (Minichromosome maintenance 2) | DRSC16734 | 3.34e6 | 3.79e6 |
| CG34457 | DRSC06924 | 3.58e6 | 4.05e6 |
| Rab3-GEF (Rab3 GDP-GTP exchange factor) | DRSC19954 | 3.57e6 | 4.04e6 |
| Rab3-GEF (Rab3 GDP-GTP exchange factor) | DRSC19955 | 3.39e6 | 3.73e6 |
| Rab3-GEF (Rab3 GDP-GTP exchange factor) | DRSC19956 | 2.92e6 | 3.49e6 |
| CG9215 | DRSC20171 | 3.49e6 | 4.00e6 |
| alpha-Est3 (alpha-Esterase-3) | DRSC12615 | 3.47e6 | 3.95e6 |
| CG42656 | DRSC12472 | 3.44e6 | 3.79e6 |
| CG9286 | DRSC16467 | 3.39e6 | 3.76e6 |
| CG3483 | DRSC04371 | 3.70e6 | 4.12e6 |
| ATP8A (ATPase 8A) | DRSC05421 | 3.67e6 | 4.07e6 |
| ATP8A (ATPase 8A) | DRSC06643 | 3.45e6 | 3.99e6 |
| ATP8A (ATPase 8A) | DRSC06644 | 3.66e6 | 4.17e6 |
| CG11585 | DRSC19410 | 3.81e6 | 4.26e6 |
| dl (dorsal) | DRSC03520 | 3.27e6 | 3.86e6 |
| dl (dorsal) | DRSC03521 | 3.59e6 | 4.03e6 |
| eIF3f2 (eukaryotic translation initiation factor 3 subunit f2) | DRSC04903 | 3.40e6 | 3.82e6 |
| Hacd1 (3-hydroxyacyl-CoA dehydratase 1) | DRSC02988 | 3.67e6 | 4.34e6 |
| Atg5 (Autophagy-related 5) | DRSC18112 | 3.48e6 | 3.86e6 |
| CG17575 | DRSC06682 | 3.57e6 | 3.99e6 |
| CR18275 + CR18166 + CG32817 | DRSC17249 | 3.56e6 | 4.04e6 |
| CG42540 | DRSC08327 | 3.19e6 | 3.67e6 |
| CG42540 | DRSC08328 | 3.45e6 | 3.91e6 |
| CG42540 | DRSC08593 | 3.00e6 | 3.51e6 |
| CG42540 | DRSC23011 | 3.61e6 | 4.16e6 |
| CG43689 | DRSC18383 | 2.74e6 | 3.40e6 |
| CG43689 | DRSC22467 | 3.57e6 | 4.05e6 |
| CG43689 | DRSC23070 | 2.78e6 | 3.74e6 |
| Pa1 (PTIP associated 1) | DRSC19422 | 3.49e6 | 3.95e6 |
| CG11052 | DRSC14288 | 3.49e6 | 3.96e6 |
| Cdk9 (Cyclin-dependent kinase 9) | DRSC04601 | 3.27e6 | 3.59e6 |
| RpS8 (Ribosomal protein S8) | DRSC16318 | 2.84e6 | 3.53e6 |
| Gem4b + Gem4c + Glos | DRSC18244 | 3.65e6 | 4.08e6 |
| CG13398 | DRSC02268 | 3.61e6 | 4.07e6 |
| CG9691 | DRSC18441 | 3.57e6 | 4.01e6 |
| CG14323 | DRSC14802 | 3.28e6 | 3.80e6 |
| CG15549 | DRSC15087 | 3.61e6 | 4.07e6 |
| Gfrl (Glial cell line-derived neurotrophic family receptor-like) | DRSC15197 | 3.62e6 | 4.05e6 |
| Gfrl (Glial cell line-derived neurotrophic family receptor-like) | DRSC15199 | 3.56e6 | 3.90e6 |
| Gfrl (Glial cell line-derived neurotrophic family receptor-like) | DRSC15565 | 3.62e6 | 4.08e6 |
| Gfrl (Glial cell line-derived neurotrophic family receptor-like) | DRSC15719 | 3.68e6 | 4.12e6 |

No new results follow: entries from further up.
| predicted target | DRSC id | mean viability with MMS | viability with MMS, replicate 1 |
| --- | --- | --- | --- |
| CG42540 | DRSC08327 | 3.19e6 | 3.67e6 |
| CG42540 | DRSC08328 | 3.45e6 | 3.91e6 |
| CG42540 | DRSC08593 | 3.00e6 | 3.51e6 |
| CG42540 | DRSC23011 | 3.61e6 | 4.16e6 |
| CG43689 | DRSC18383 | 2.74e6 | 3.40e6 |
| CG43689 | DRSC22467 | 3.57e6 | 4.05e6 |
| CG43689 | DRSC23070 | 2.78e6 | 3.74e6 |
| Pa1 (PTIP associated 1) | DRSC19422 | 3.49e6 | 3.95e6 |
| CG11052 | DRSC14288 | 3.49e6 | 3.96e6 |
